Some test systems named below: TMEM129 (human); TMEM138 (human); TMEM139 (human); TMEM149 (human); TMEM14C (human); TMEM159 (human); TMEM17 (human); TMEM174 (human); TMEM176A (human); TMEM182 (human); TMEM185A (human); TMEM186 (human); TMEM19 (human); TMEM25 (human); TMEM27 (human); TMEM4 (human); TMEM41A (human); TMEM43 (human); TMEM53 (human).
Common to all, as to test: protein microarray (ProtoArray v5.0), streptavidin-Alexa Fluor 647
What all share (conditions): 3'-biotin; 20 mM Tris (pH 7.5), 5 mM MgCl2, 100 mM KCl, 0.1% Tween-20, A/T-rich and random oligonucleotide blockers; temperature not stated; high values mean tight binding

The target in a further assay is T1, TMEM170 (UniProt Q8WVE7).
T1 sequence: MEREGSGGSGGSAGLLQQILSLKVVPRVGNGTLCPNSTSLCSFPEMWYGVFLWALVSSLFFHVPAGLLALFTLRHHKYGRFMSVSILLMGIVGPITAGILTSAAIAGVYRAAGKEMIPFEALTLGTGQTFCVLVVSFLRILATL

This is one part of the list. For some assays here: Construct or isoform of the protein are uncertain.

Consider “GGGAGGCTGAGGCAGG [G4-1 biotinylated (PQS2)]”, for which the binding signal was -0.322 z-score in the assay on TMEM129 (human); -0.344 z-score in the assay with TMEM138 (human); -0.302 z-score in the assay with TMEM139 (human); -0.335 z-score with TMEM149 (human); -0.326 z-score in the assay on TMEM14C (human); -0.355 z-score with TMEM159 (human). For the same sequence, the binding signal in the assay with TMEM17 (human) was -0.342 z-score; with TMEM170, -0.326 z-score; in the assay with TMEM174 (human) it was -0.265 z-score; with TMEM176A (human), -0.317 z-score; in the assay with TMEM182 (human) it was -0.352 z-score; in the assay with TMEM185A (human), -0.351 z-score. For the same sequence, the binding signal in the assay with TMEM186 (human) is -0.337 z-score; with TMEM19 (human), -0.353 z-score; with TMEM25 (human), -0.348 z-score; in the assay with TMEM27 (human), -0.344 z-score; with TMEM4 (human), -0.273 z-score; in the assay on TMEM41A (human), -0.332 z-score. For the same sequence, the binding signal in the assay on TMEM43 (human) is -0.327 z-score; in the assay with TMEM53 (human), -0.317 z-score.

(Values after article PMC5996148.)
